Results are given in words; binding and its absence hold for the method and conditions named. In cells and extracts the contact can be indirect. These calls come from enrichment with a bait or labelling near it, and not all partners need be listed. For some of these results: A no says only that the protein was not detected with the bait.

By UniProt entry, the sequences of proteins in these tests, tags left out.
UniProt Q8IV32: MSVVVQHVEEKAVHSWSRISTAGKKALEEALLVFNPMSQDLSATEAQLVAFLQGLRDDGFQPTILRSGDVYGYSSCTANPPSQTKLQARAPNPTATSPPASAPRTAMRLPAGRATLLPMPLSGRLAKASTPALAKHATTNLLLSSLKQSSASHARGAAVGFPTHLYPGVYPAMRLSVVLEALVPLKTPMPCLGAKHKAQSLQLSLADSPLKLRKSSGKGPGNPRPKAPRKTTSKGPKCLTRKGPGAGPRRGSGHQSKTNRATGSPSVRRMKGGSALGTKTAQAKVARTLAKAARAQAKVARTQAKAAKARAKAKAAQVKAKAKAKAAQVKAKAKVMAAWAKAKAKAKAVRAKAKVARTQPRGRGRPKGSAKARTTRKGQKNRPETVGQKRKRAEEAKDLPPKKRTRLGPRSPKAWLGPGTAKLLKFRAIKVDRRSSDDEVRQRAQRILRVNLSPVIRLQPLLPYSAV
UniProt P46100: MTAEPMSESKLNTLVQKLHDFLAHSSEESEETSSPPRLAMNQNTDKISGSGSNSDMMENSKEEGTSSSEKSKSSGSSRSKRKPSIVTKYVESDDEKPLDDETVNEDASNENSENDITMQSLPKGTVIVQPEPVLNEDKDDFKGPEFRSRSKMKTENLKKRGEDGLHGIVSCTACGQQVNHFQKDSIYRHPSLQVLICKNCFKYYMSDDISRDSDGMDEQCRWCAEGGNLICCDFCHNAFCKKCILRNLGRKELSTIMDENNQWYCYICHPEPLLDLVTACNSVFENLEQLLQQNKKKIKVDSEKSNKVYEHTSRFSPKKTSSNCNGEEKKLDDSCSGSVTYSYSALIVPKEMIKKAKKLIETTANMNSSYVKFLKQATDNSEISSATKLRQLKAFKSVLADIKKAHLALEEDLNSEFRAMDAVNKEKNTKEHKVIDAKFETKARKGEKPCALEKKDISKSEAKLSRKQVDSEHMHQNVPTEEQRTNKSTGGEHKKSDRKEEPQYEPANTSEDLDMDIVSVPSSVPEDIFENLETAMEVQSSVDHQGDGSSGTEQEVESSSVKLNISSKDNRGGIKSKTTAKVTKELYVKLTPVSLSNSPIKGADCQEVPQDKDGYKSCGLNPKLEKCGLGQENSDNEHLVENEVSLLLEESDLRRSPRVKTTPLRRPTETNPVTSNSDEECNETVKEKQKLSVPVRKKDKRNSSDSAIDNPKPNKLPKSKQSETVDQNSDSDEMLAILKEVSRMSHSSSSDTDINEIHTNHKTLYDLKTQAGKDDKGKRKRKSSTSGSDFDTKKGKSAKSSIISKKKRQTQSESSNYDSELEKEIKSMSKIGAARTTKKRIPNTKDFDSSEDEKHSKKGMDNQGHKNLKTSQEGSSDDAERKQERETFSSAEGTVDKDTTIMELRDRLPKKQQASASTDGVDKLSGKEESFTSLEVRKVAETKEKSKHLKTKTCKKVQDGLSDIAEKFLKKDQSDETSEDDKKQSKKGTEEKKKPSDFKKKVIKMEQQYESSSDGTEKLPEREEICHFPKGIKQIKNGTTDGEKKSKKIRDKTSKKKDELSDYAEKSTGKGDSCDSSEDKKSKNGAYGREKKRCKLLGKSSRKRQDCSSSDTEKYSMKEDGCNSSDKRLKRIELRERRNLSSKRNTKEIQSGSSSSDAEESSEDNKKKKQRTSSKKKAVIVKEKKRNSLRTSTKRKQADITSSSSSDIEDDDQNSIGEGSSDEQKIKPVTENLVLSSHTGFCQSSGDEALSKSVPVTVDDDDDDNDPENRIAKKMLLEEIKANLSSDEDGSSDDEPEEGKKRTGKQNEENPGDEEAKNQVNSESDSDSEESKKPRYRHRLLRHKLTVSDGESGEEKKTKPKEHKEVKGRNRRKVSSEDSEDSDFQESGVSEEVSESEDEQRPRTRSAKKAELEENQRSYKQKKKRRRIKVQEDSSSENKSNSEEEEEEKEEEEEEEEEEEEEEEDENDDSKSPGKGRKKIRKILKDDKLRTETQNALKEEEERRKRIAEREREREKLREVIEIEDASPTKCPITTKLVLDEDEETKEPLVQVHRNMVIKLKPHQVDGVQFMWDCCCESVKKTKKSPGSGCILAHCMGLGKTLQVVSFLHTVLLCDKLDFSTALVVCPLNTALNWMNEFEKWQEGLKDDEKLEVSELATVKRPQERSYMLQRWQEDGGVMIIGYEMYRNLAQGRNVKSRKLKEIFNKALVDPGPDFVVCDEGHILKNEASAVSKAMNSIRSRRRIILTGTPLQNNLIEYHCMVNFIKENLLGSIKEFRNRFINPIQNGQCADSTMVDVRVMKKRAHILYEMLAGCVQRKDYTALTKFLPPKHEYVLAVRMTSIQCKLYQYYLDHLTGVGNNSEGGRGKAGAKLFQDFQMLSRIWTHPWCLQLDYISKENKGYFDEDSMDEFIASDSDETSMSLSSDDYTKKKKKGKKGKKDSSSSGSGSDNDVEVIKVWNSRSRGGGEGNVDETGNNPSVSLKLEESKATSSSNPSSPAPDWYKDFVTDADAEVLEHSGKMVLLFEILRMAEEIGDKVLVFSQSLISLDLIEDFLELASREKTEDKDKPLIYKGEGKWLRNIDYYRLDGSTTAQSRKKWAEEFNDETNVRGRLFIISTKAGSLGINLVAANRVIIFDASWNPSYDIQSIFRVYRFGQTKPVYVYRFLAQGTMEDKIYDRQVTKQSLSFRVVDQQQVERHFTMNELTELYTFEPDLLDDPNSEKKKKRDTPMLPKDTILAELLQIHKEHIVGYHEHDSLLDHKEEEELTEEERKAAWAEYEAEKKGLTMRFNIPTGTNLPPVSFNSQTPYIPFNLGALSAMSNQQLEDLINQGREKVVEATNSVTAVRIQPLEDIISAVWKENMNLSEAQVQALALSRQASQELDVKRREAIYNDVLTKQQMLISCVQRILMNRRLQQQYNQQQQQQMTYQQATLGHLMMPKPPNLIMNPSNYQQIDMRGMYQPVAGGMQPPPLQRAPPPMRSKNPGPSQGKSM
UniProt P54132: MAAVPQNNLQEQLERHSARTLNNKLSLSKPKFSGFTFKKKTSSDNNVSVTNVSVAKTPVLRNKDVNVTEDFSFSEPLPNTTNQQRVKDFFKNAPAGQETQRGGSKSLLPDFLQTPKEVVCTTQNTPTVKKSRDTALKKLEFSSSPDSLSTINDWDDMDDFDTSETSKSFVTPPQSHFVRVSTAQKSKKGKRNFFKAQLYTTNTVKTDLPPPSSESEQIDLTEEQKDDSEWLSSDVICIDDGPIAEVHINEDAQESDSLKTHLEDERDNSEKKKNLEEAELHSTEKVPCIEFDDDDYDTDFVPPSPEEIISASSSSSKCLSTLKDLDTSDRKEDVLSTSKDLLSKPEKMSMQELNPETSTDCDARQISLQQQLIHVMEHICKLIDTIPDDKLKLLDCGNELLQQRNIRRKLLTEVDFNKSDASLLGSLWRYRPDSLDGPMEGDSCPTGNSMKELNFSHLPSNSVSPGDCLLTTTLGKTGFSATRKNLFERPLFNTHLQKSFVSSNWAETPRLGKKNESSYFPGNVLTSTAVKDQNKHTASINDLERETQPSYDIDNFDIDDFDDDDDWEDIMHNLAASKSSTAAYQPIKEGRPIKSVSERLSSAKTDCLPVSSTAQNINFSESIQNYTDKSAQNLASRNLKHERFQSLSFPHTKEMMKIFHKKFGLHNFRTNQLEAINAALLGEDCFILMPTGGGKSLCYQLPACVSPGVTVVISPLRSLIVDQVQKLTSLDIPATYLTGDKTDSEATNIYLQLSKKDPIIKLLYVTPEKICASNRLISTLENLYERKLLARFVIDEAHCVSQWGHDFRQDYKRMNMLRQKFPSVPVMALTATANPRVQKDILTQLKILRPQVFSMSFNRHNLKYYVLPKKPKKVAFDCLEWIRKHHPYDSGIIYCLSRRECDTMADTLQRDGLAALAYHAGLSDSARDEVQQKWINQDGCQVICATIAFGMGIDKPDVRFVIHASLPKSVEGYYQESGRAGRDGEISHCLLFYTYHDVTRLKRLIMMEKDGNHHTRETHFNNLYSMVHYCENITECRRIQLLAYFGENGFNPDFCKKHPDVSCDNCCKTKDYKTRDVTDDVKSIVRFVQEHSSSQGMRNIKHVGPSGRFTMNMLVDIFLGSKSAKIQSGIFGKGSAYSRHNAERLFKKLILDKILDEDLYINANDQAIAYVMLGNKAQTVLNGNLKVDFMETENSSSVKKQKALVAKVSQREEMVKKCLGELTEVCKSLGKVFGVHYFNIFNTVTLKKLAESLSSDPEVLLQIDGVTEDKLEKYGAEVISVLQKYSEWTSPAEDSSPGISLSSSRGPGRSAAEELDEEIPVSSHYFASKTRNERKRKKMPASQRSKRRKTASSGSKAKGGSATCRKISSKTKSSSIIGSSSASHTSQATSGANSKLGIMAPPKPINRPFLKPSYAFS
UniProt P83916: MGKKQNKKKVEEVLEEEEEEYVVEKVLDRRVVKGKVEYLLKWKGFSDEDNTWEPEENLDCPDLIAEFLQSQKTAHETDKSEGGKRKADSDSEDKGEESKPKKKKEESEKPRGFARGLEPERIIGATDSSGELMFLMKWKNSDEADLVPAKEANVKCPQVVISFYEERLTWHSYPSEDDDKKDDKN
UniProt Q13185: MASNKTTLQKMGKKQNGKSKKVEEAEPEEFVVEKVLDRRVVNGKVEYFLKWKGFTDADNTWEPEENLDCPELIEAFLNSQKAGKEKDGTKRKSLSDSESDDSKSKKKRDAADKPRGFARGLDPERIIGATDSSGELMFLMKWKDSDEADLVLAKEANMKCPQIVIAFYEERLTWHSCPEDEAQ
UniProt O60934: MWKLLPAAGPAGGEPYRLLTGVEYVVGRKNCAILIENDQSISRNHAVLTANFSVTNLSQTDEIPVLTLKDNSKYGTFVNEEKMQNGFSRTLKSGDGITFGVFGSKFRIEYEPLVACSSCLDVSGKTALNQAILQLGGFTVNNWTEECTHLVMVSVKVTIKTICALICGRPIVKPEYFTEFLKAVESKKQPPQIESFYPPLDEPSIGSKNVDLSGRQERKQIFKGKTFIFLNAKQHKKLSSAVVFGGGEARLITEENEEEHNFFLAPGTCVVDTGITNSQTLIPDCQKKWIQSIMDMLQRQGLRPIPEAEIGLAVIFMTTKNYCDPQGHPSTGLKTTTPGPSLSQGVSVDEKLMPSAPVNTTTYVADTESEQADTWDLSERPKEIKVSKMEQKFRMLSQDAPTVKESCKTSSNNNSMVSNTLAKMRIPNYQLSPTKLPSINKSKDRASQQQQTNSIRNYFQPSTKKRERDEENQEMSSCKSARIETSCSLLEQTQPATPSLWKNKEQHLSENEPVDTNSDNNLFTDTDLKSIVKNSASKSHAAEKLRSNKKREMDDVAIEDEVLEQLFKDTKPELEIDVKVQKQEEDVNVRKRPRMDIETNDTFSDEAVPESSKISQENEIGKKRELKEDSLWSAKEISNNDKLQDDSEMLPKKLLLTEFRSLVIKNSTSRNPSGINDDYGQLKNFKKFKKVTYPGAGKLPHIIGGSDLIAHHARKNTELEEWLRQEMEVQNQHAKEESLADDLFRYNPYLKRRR
UniProt Q08945: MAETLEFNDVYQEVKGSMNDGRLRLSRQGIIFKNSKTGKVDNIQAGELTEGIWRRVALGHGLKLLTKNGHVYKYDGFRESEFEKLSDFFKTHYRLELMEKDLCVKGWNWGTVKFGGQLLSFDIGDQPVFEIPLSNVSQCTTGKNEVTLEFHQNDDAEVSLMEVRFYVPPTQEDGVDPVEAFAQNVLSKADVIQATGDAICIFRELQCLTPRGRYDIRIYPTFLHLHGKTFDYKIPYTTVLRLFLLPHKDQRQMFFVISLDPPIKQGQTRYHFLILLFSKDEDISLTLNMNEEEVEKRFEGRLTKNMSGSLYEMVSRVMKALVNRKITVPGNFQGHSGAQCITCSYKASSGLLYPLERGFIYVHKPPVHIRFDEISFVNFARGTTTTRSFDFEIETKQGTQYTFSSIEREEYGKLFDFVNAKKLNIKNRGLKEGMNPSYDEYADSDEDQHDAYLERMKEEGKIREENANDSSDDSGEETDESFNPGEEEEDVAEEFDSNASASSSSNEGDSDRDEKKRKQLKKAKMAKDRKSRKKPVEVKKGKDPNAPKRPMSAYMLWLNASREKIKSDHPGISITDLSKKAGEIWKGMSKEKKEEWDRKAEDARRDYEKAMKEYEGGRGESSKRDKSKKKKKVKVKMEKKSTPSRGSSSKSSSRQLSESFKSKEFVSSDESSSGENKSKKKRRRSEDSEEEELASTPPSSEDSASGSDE

Assay [1] addresses CCDC71-BirA* (BioID bait) (UniProt Q8IV32). As to the kind of experiment: proximity labelling; BioID with CCDC71-BirA* in HEK293 Flp-In T-REx cells; streptavidin capture and mass spectrometry; SAINT, BFDR ≤ 5% over negative controls; biological duplicates.
Assay [2] addresses ATRX fused to a FLAG-tagged BirA* biotin ligase (BioID bait) (UniProt P46100). As to the kind of experiment: proximity labelling; BioID with ATRX fused to FLAG-BirA* at the N- or C-terminus in tetracycline-inducible HEK293 Flp-In T-REx cells; 50 uM biotin for the last 8 hr; streptavidin capture and mass spectrometry; SAINT, BFDR ≤ 5% against untransfected cells and BirA* alone, further filtered against NLS-BirA*; biological duplicates.

In assay [3] the target is ATRX fused to a FLAG-tagged BirA* biotin ligase (BioID bait), P46100. The description is as above. The note with it: remark: other sources report otherwise.

On to “ATRX (endogenous) (from UniProt P46100 1-2492)”, for which the binding result in assay [1] is listed as “binds”.

As for “BLM helicase (from UniProt P54132 1-1417)”, the binding result in assay [2] is on record as “binds”. Still for that read-out and setting: to “CCDC71 (endogenous) (from UniProt Q8IV32 1-467)” belongs “binds”. In the case of “HDAC1 histone deacetylase (from UniProt Q13547 1-482)”, in assay [1], the binding result is on record as “binds”. With HP1β (CBX1) (from UniProt P83916 1-185), the binding result in assay [2] is on record as “no binding”.

Consider HP1γ (CBX3) (from UniProt Q13185 1-183), for which the binding result in assay [2] is listed as “no binding”. On the same count and under the same terms, to “NBS1 component of the MRN complex (from UniProt O60934 1-754)” belongs “binds”; to PML protein (from UniProt P29590 1-882), “binds”.

Take “SSRP1 subunit of the FACT histone chaperone (from UniProt Q08945 1-709)”: in assay [2], the binding entry is “binds”. For the molecule “SUPT16H subunit of the FACT histone chaperone (from UniProt Q9Y5B9 1-1047)”, in assay [2], the binding result is “binds”. Same read-out and setting: to “ZFHX4 transcription factor (from UniProt Q86UP3 1-3567)” belongs “binds”.

B1: FAM207A (endogenous) (protein, UniProt Q9NSI2 1-230)
chain: MGKVRGLRARVHQAAVRPKGEAAPGPAPPAPEATPPPASAAGKDWAFINTNIFARTKIDPSALVQKLELDVRSVTSVRRGEAGSSARSVPSIRRGAEAKTVLPKKEKMKLRREQWLQKIEAIKLAEQKHREERRRRATVVVGDLHPLRDALPELLGLEAGSRRQARSRESNKPRPSELSRMSAAQRQQLLEEERTRFQELLASPAYRASPLVAIGQTLARQMQLEDGGQL
Take B1: in assay [2], the binding result is “binds”.

B2: SLF2 (SMC5/6 localization factor 2), endogenous (protein, UniProt Q8IX21 1-1173)
chain: MTRRCMPARPGFPSSPAPGSSPPRCHLRPGSTAHAAAGKRTESPGDRKQSIIDFFKPASKQDRHMLDSPQKSNIKYGGSRLSITGTEQFERKLSSPKESKPKRVPPEKSPIIEAFMKGVKEHHEDHGIHESRRPCLSLASKYLAKGTNIYVPSSYHLPKEMKSLKKKHRSPERRKSLFIHENNEKNDRDRGKTNADSKKQTTVAEADIFNNSSRSLSSRSSLSRHHPEESPLGAKFQLSLASYCRERELKRLRKEQMEQRINSENSFSEASSLSLKSSIERKYKPRQEQRKQNDIIPGKNNLSNVENGHLSRKRSSSDSWEPTSAGSKQNKFPEKRKRNSVDSDLKSTRESMIPKARESFLEKRPDGPHQKEKFIKHIALKTPGDVLRLEDISKEPSDETDGSSAGLAPSNSGNSGHHSTRNSDQIQVAGTKETKMQKPHLPLSQEKSAIKKASNLQKNKTASSTTKEKETKLPLLSRVPSAGSSLVPLNAKNCALPVSKKDKERSSSKECSGHSTESTKHKEHKAKTNKADSNVSSGKISGGPLRSEYGTPTKSPPAALEVVPCIPSPAAPSDKAPSEGESSGNSNAGSSALKRKLRGDFDSDEESLGYNLDSDEEEETLKSLEEIMALNFNQTPAATGKPPALSKGLRSQSSDYTGHVHPGTYTNTLERLVKEMEDTQRLDELQKQLQEDIRQGRGIKSPIRIGEEDSTDDEDGLLEEHKEFLKKFSVTIDAIPDHHPGEEIFNFLNSGKIFNQYTLDLRDSGFIGQSAVEKLILKSGKTDQIFLTTQGFLTSAYHYVQCPVPVLKWLFRMMSVHTDCIVSVQILSTLMEITIRNDTFSDSPVWPWIPSLSDVAAVFFNMGIDFRSLFPLENLQPDFNEDYLVSETQTTSRGKESEDSSYKPIFSTLPETNILNVVKFLGLCTSIHPEGYQDREIMLLILMLFKMSLEKQLKQIPLVDFQSLLINLMKNIRDWNTKVPELCLGINELSSHPHNLLWLVQLVPNWTSRGRQLRQCLSLVIISKLLDEKHEDVPNASNLQVSVLHRYLVQMKPSDLLKKMVLKKKAEQPDGIIDDSLHLELEKQAYYLTYILLHLVGEVSCSHSFSSGQRKHFVLLCGALEKHVKCDIREDARLFYRTKVKDLVARIHGKWQEIIQNCRPTQGQLHDFWVPDS
For the molecule B2, the binding result in assay [2] is given as “binds”.

B3: RAD50 subunit of the MRN complex, Q92878 1-1312 (protein)
chain: MSRIEKMSILGVRSFGIEDKDKQIITFFSPLTILVGPNGAGKTTIIECLKYICTGDFPPGTKGNTFVHDPKVAQETDVRAQIRLQFRDVNGELIAVQRSMVCTQKSKKTEFKTLEGVITRTKHGEKVSLSSKCAEIDREMISSLGVSKAVLNNVIFCHQEDSNWPLSEGKALKQKFDEIFSATRYIKALETLRQVRQTQGQKVKEYQMELKYLKQYKEKACEIRDQITSKEAQLTSSKEIVKSYENELDPLKNRLKEIEHNLSKIMKLDNEIKALDSRKKQMEKDNSELEEKMEKVFQGTDEQLNDLYHNHQRTVREKERKLVDCHRELEKLNKESRLLNQEKSELLVEQGRLQLQADRHQEHIRARDSLIQSLATQLELDGFERGPFSERQIKNFHKLVRERQEGEAKTANQLMNDFAEKETLKQKQIDEIRDKKTGLGRIIELKSEILSKKQNELKNVKYELQQLEGSSDRILELDQELIKAERELSKAEKNSNVETLKMEVISLQNEKADLDRTLRKLDQEMEQLNHHTTTRTQMEMLTKDKADKDEQIRKIKSRHSDELTSLLGYFPNKKQLEDWLHSKSKEINQTRDRLAKLNKELASSEQNKNHINNELKRKEEQLSSYEDKLFDVCGSQDFESDLDRLKEEIEKSSKQRAMLAGATAVYSQFITQLTDENQSCCPVCQRVFQTEAELQEVISDLQSKLRLAPDKLKSTESELKKKEKRRDEMLGLVPMRQSIIDLKEKEIPELRNKLQNVNRDIQRLKNDIEEQETLLGTIMPEEESAKVCLTDVTIMERFQMELKDVERKIAQQAAKLQGIDLDRTVQQVNQEKQEKQHKLDTVSSKIELNRKLIQDQQEQIQHLKSTTNELKSEKLQISTNLQRRQQLEEQTVELSTEVQSLYREIKDAKEQVSPLETTLEKFQQEKEELINKKNTSNKIAQDKLNDIKEKVKNIHGYMKDIENYIQDGKDDYKKQKETELNKVIAQLSECEKHKEKINEDMRLMRQDIDTQKIQERWLQDNLTLRKRNEELKEVEEERKQHLKEMGQMQVLQMKSEHQKLEENIDNIKRNHNLALGRQKGYEEEIIHFKKELREPQFRDAEEKYREMMIVMRTTELVNKDLDIYYKTLDQAIMKFHSMKMEEINKIIRDLWRSTYRGQDIEYIEIRSDADENVSASDKRRNYNYRVVMLKGDTALDMRGRCSAGQKVLASLIIRLALAETFCLNCGIIALDEPTTNLDRENIESLAHALVEIIKSRSQQRNFQLLVITHDEDFVELLGRSEYVEKFYRIKKNIDQCSEIVKCSVSSLGFNVH
As for B3, the binding entry in assay [3] is recorded as “no binding”.

B4: MRE11 subunit of the MRN complex, P49959 1-708 (protein)
chain: MSTADALDDENTFKILVATDIHLGFMEKDAVRGNDTFVTLDEILRLAQENEVDFILLGGDLFHENKPSRKTLHTCLELLRKYCMGDRPVQFEILSDQSVNFGFSKFPWVNYQDGNLNISIPVFSIHGNHDDPTGADALCALDILSCAGFVNHFGRSMSVEKIDISPVLLQKGSTKIALYGLGSIPDERLYRMFVNKKVTMLRPKEDENSWFNLFVIHQNRSKHGSTNFIPEQFLDDFIDLVIWGHEHECKIAPTKNEQQLFYISQPGSSVVTSLSPGEAVKKHVGLLRIKGRKMNMHKIPLHTVRQFFMEDIVLANHPDIFNPDNPKVTQAIQSFCLEKIEEMLENAERERLGNSHQPEKPLVRLRVDYSGGFEPFSVLRFSQKFVDRVANPKDIIHFFRHREQKEKTGEEINFGKLITKPSEGTTLRVEDLVKQYFQTAEKNVQLSLLTERGMGEAVQEFVDKEEKDAIEELVKYQLEKTQRFLKERHIDALEDKIDEEVRRFRETRQKNTNEEDDEVREAMTRARALRSQSEESASAFSADDLMSIDLAEQMANDSDDSISAATNKGRGRGRGRRGGRGQNSASRGGSQRGRADTGLETSTRSRNSKTAVSASRNMSIIDAFKSTRQQPSRNVTTKNYSEVIEVDESDVEEDIFPTTSKTDQRWSSTSSSKIMSQSQVSKGVDFESSEDDDDDPFMNTSSLRRNRR
Turning to B4, the binding entry in assay [3] is listed as “no binding”.

B5: ZBTB4 (protein, UniProt Q9P1Z0 1-1013)
chain: MPPPAEVTDPSHAPAVLRQLNEQRLRGLFCDVTLIAGDTKFPAHRSVLAASSPFFREALLTSAPLPLPPATGGAAPNPATTTAASSSSSSSSSSSSSSSSASSSSSSSSSSPPPASPPASSPPRVLELPGVPAAAFSDVLNFIYSARLALPGGGGDGAAVAEIGALGRRLGISRLQGLGEGGDAWVPPTPAPMATSQPEEDSFGPGPRPAGEWEGDRAEAQAPDLQCSLPRRPLPCPQCGKSFIHPKRLQTHEAQCRRGASTRGSTGLGAGGAGPGGPAGVDASALPPPVGFRGGPEHVVKVVGGHVLYVCAACERSYVTLSSLKRHSNVHSWRRKYPCRYCEKVFALAEYRTKHEVWHTGERRYQCIFCWETFVTYYNLKTHQRAFHGISPGLLASEKTPNGGYKPKLNTLKLYRLLPMRAAKRPYKTYSQGAPEAPLSPTLNTPAPVAMPASPPPGPPPAPEPGPPPSVITFAHPAPSVIVHGGSSSGGGGSGTASTGGSQAASVITYTAPPRPPKKREYPPPPPEPAATPTSPATAVSPATAAGPAMATTTEEAKGRNPRAGRTLTYTAKPVGGIGGGGGPPTGAGRGPSQLQAPPPLCQITVRIGEEAIVKRRISETDLRPGELSGEEMEESEEDEEEEDEEEEEEDEEESKAGGEDQLWRPYYSYKPKRKAGAAGGASVGGSGLPRGRRPPRWRQKLERRSWEETPAAESPAGRARTERRHRCGDCAQTFTTLRKLRKHQEAHGGGSHSSRAGRRPSTRFTCPHCAKVCKTAAALSRHGQRHAAERPGGTPTPVIAYSKGSAGTRPGDVKEEAPQEMQVSSSSGEAGGGSTAAEEASETASLQDPIISGGEEPPVVASGGSYVYPPVQEFPLALIGGGREPGGGRGKSGSEGPVGAGEGDRMEGIGAAKVTFYPEPYPLVYGPQLLAAYPYNFSNLAALPVALNMVLPDEKGAGALPFLPGVFGYAVNPQAAPPAPPTPPPPTLPPPIPPKGEGERAGVERTQKGDVG
As to B5, the binding result in assay [2] is reported as “binds”.

Source of the values: publication PMC8629390.
